From publication PMC10673202
Results are given in words; binding and its absence hold for the method and conditions named. Binding seen in cells or lysates may run through a third protein. Some results given as binding are weak or reduced against the parent protein; the word gives no strength.

The chains behind the UniProt entries cited, without tags or fusion partners.
UniProt P29466: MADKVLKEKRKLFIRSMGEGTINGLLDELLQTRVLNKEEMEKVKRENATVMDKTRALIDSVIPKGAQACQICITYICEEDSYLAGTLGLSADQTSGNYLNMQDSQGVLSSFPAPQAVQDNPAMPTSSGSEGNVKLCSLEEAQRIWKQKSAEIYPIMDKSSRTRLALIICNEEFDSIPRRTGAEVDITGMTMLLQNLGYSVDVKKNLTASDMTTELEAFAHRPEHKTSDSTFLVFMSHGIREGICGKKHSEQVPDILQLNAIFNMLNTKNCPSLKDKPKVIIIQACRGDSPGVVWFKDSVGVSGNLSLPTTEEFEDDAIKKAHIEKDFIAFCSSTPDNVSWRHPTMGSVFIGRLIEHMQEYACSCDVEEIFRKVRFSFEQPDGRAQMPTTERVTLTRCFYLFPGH
UniProt Q9ULZ3: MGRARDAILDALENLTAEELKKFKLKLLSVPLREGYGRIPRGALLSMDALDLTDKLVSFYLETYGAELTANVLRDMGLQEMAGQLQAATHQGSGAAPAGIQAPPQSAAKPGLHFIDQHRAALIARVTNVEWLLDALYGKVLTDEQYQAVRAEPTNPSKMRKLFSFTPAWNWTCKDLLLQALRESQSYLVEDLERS

Target: Flag-tagged pro-caspase-1 (UniProt P29466)
Test: co-IP

Substance: HA-tagged ASC (from UniProt Q9ULZ3 1-195)
- binding: binds
